No constants are given. Whether binding was seen depends on the method and setting. Some binding calls cover weakened binding; strength is not graded here. For some of these results: Where a sequence is shown, tags or fusion partners need not be part of it.
Legend:
Assay in all cases: two-hybrid; S. cerevisiae Y2HGold (Clontech); human GRα on the Gal4 activation domain (pGADT7), S. pombe genes on the Gal4 DNA-binding domain (pGBKT7); growth of blue colonies on medium without leucine, tryptophan, histidine, adenine, with Aureobasidin A (200 ng/ml) and X-α-Gal; ligand-independent
[1] = biological target: S. pombe Hsp90 fused to the Gal4 DNA-binding domain (pGBKT7) (S. pombe) (UniProt P41887)
[2] = biological target: T1, S. pombe eIF3a fused to the Gal4 DNA-binding domain (pGBKT7) (S. pombe) (UniProt O74760)
T1 sequence: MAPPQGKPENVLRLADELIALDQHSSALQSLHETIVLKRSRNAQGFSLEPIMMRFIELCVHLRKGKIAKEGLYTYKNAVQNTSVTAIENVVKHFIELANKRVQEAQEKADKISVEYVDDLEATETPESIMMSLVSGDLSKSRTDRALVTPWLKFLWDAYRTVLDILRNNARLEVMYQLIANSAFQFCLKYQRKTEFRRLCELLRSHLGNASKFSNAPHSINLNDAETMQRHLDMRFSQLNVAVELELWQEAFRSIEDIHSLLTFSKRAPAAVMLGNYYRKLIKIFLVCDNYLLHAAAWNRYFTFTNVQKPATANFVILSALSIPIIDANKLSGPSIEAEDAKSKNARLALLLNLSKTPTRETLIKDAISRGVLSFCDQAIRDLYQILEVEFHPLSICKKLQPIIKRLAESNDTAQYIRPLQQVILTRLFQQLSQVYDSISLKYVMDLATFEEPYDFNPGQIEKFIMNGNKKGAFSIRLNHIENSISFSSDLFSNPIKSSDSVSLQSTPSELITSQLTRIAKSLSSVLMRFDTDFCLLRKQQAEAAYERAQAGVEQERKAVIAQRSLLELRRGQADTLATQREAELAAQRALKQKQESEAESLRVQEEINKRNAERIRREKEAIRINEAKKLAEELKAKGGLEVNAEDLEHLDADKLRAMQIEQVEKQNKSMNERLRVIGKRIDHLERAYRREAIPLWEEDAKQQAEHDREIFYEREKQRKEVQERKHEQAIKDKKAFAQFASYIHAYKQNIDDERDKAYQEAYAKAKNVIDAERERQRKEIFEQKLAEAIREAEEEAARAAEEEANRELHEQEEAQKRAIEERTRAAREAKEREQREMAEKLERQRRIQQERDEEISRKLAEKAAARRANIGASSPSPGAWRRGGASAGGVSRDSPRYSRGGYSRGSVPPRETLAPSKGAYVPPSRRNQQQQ

Protein sequences, listed by entry. Tags and fused reporters are not part of them.
UniProt P41887: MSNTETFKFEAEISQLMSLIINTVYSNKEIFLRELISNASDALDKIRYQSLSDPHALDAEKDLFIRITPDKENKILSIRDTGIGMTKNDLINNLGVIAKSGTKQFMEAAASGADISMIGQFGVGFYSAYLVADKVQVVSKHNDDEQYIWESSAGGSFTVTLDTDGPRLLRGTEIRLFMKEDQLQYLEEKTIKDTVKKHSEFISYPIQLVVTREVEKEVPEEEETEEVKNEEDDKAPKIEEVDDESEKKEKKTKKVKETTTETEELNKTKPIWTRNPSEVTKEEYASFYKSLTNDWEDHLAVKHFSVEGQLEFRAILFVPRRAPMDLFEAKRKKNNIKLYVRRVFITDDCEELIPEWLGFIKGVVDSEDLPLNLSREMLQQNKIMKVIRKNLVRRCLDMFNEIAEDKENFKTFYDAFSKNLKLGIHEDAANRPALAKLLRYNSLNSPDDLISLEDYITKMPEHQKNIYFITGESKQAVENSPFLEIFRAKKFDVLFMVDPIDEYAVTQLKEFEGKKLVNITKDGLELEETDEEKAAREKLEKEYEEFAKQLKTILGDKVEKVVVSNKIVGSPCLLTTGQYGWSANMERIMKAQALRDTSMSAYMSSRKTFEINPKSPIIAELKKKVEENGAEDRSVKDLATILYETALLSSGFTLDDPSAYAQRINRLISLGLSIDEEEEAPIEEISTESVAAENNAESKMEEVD
UniProt P04150: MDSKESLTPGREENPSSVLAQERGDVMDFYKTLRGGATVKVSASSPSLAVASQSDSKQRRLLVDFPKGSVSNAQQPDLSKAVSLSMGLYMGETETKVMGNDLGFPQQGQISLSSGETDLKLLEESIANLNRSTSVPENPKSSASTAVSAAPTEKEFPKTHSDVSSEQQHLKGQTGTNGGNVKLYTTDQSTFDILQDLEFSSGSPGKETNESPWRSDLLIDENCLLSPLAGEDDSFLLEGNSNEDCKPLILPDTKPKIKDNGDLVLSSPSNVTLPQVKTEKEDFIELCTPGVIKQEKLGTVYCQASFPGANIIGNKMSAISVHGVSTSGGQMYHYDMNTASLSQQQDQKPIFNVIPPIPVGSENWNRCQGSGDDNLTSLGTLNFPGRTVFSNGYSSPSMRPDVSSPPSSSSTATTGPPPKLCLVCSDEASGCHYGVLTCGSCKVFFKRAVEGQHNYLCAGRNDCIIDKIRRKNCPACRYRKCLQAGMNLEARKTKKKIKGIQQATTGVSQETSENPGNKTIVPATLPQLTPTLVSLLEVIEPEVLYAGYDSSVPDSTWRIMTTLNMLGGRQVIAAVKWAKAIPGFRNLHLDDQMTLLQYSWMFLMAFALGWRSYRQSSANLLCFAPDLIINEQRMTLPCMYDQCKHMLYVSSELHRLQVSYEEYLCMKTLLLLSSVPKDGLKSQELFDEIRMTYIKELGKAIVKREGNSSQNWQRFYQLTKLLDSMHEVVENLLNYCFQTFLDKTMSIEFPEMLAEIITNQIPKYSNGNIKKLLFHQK

[3] = biological target: T2, S. pombe eIF3c fused to the Gal4 DNA-binding domain (pGBKT7) (S. pombe) (UniProt O14164)
T2 sequence: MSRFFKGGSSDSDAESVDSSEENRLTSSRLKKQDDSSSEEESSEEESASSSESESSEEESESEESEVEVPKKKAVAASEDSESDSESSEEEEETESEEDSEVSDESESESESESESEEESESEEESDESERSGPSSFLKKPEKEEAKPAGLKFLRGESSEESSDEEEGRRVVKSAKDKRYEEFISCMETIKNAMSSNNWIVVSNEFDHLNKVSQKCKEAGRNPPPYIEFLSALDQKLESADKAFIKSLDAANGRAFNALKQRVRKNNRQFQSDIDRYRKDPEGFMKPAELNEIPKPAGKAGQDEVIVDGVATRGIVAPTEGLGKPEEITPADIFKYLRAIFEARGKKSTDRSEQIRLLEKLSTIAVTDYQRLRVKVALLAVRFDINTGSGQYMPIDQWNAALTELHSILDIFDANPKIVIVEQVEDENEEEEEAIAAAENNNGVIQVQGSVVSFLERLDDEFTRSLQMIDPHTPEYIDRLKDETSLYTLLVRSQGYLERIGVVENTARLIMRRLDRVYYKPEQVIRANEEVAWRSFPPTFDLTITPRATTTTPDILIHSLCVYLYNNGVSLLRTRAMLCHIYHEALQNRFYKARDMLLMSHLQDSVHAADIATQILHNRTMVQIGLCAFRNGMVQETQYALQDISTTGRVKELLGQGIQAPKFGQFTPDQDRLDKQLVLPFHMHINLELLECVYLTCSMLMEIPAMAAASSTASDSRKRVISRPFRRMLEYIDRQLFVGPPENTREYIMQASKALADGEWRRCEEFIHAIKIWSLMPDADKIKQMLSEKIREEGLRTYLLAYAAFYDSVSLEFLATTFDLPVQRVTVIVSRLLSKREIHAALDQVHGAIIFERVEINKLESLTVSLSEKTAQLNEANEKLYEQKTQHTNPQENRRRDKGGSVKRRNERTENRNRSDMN

[4] = biological target: T3, S. pombe mts4 fused to the Gal4 DNA-binding domain (pGBKT7) (S. pombe) (UniProt P87048)
T3 sequence: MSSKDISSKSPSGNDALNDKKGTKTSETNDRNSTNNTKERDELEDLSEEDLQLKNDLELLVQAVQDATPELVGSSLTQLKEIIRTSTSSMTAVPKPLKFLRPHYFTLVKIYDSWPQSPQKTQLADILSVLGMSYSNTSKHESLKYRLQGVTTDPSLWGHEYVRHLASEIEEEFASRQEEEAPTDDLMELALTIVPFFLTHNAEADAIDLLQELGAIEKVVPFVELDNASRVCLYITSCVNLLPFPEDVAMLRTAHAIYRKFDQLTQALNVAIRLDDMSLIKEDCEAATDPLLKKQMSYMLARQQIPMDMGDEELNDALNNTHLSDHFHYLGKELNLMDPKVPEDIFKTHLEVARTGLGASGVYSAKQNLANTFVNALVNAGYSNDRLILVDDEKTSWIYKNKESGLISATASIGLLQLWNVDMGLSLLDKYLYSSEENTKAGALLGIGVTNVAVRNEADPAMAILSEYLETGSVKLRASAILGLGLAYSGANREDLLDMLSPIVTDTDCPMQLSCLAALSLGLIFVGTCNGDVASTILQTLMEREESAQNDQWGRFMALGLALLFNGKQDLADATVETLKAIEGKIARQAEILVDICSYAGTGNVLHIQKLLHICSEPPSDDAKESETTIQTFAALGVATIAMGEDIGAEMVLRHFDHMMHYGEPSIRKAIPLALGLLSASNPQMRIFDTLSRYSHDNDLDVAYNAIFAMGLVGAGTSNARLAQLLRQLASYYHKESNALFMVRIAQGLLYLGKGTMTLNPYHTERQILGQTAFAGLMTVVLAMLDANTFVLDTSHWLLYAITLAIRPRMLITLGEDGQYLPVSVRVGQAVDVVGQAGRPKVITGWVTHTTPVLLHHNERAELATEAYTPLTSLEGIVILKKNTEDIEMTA

Measured: binding

human GRα fused to the Gal4 activation domain (pGADT7) (from UniProt P04150 1-777)
binds: [1] | [2] | [3] | [4]

From article PMC5608759
